Here are results for one compound from patent US20240165114A1, “TREATMENT OF DIABETIC NEPHROPATHY WITH AN sGC STIMULATOR” (Cyclerion Therapeutics, Inc., priority 2019, published 2024).

The test system of this data set is adult patients with type 2 diabetes mellitus with albuminuria. In words: Mediation analysis of UACR effect through blood pressure change. It is filed as in vivo, human. How it is done:
From mediation analyses, it was determined that for the mITT Population, only 4 to 17% of the total effect of treatment on change in UACR is mediated through change in systolic blood pressure. Similarly, for the ITT Population, only 8 to 25% of the total UACR change is mediated through change in systolic blood pressure. When using Week 12 trough cuff systolic blood pressure as the mediator, a more common but less comprehensive blood pressure measure, only 3% of the total UACR change is mediated through change in SBP.

Regarding `OC(CNc1nc(-c2cc(-c3ccon3)n(Cc3ccccc3F)n2)ncc1F)(C(F)(F)F)C(F)(F)F` [Compound I, praliciguat], where the note is “Week 12 trough cuff systolic blood pressure as the mediator”, the “share of total UACR change mediated through change in SBP” value was 3%. The “share of the effect on UACR independent of blood pressure changes” value (mediation analysis, ITT) was “⅔”.
